Results deposited as PubChem BioAssay AID1259282 (Sanger Institute, 2017).

- Assay: 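Kinases whose loss reduces viability on their own or with anchor drugs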 (primary screen)
- Cell system: DIFI human colorectal cancer cell line
- Reagents: siRNA pool against human genes
- Conditions: anchor drug at a mild dose (BYL719 1 µM, cetuximab 5 µg/ml, trametinib 10 nM) or DMSO vehicle; exposure time not given
- Detection: 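Robust z-score and replicate-mean viability versus non-targeting pool without drug, plus a synergy score for each low-dose anchor drug (BYL719, cetuximab, trametinib)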
- Scale: robust z-score, knock-down alone: higher = more viable cells than typical knock-down; viability, knock-down alone: higher = more viable cells
- Units: viability, knock-down alone in fraction of control
- Active means: 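Essential when the robust z-score of the knock-down without drug falls below -3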
- Calls: active = essential (knock-down alone, z below -3); inactive = not essential
The deposit covers 794 reagents; below is an unselected part. 11 of all reagents (1.4%) count as active. 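Calls flag knock-downs that lower viability without drug; drug synergy appears only in the synergy scores; exposure time not stated.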 Entries without a mark were called inactive. Viability is capped at 1. Not all columns of the deposit are shown. Not stated in the record: the amount of reagent, the time to read-out.

Knock-down of MAPK7 [SID56478666] resulted in: robust z-score, knock-down alone 0.715; viability, knock-down alone 1. MAP2K2 [SID56478689] scored robust z-score, knock-down alone 0.715; viability, knock-down alone 1. ACVR1 [SID152154539] gave robust z-score, knock-down alone 0.715; viability, knock-down alone 1. For PDGFRA [SID135620628], the values are robust z-score, knock-down alone 0.715; viability, knock-down alone 1.

Entries above whose gene name starts with M or m:
MAPK7 [SID56478666] — robust z-score, knock-down alone = 0.715; viability, knock-down alone = 1
MAP2K2 [SID56478689] — robust z-score, knock-down alone = 0.715; viability, knock-down alone = 1

The results go on.
Against CDC42BPG [SID135621430], the values are robust z-score, knock-down alone 0.715; viability, knock-down alone 1. Knock-down of STK3 [SID152146922] resulted in: robust z-score, knock-down alone 0.715; viability, knock-down alone 1. SMC1A [SID134311995] showed robust z-score, knock-down alone -1.99; viability, knock-down alone 0.608. After knock-down of SPHK1 [SID152154122], the screen gave robust z-score, knock-down alone -1.27; viability, knock-down alone 0.711. With knock-down of NTRK3 [SID135620627], the screen gave robust z-score, knock-down alone 0.715; viability, knock-down alone 1. After knock-down of ERBB2 [SID152153302], the record shows robust z-score, knock-down alone 0.715; viability, knock-down alone 1.

After knock-down of TNIK [SID152153870] the results were robust z-score, knock-down alone 0.715; viability, knock-down alone 1. TPK1 [SID135621256] scored robust z-score, knock-down alone 0.0826; viability, knock-down alone 0.908.
